Results are given in words; binding and its absence hold for the method and conditions named. In cells and extracts the contact can be indirect. Some entries that bind do so weakly or less than the wild type. Sequences can lack the tags named with a protein.

This note sets out measurements from doi:10.1101/2020.02.20.958934.

In the test the target is T1, DCF1-his-myc (UniProt Q9QY73).
T1 sequence: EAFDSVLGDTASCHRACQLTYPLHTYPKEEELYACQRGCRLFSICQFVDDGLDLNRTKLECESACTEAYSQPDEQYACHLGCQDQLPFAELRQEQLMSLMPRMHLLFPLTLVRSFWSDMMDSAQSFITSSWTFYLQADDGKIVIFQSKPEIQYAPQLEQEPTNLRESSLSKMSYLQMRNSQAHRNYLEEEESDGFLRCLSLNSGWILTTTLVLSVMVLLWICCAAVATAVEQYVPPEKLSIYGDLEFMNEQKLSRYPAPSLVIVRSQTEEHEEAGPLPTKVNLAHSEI
The test is described as follows: co-IP.

B1: PEBP1-1d4 (protein, UniProt P70296 1-187)
chain: MAADISQWAGPLCLQEVDEPPQHALRVDYAGVTVDELGKVLTPTQVMNRPSSISWDGLDPGKLYTLVLTDPDAPSRKDPKFREWHHFLVVNMKGNDISSGTVLSDYVGSGPPSGTGLHRYVWLVYEQEQPLSCDEPILSNKSGDNRGKFKVETFRKKYNLGAPVAGTCYQAEWDDYVPKLYEQLSGK
With B1, the binding entry was “binds”.
